Values from PubChem BioAssay AID504808 (Drosophila RNAi Screening Center, 2011).
The deposit covers about 21,000 reagents; shown is a random part of those with a known target gene and a result. Of all reagents, 18 (0.084%) got an active call. 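Raw counts without plate normalisation, one of two replicates; the ratio scores behind the calls were not deposited.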 Unmarked entries are inactive. Names joined by + are all predicted targets of the reagent. Not stated in the record: the amount of reagent, the time to read-out.

- Test: 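Fly genes required to hold E2F transcription in check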 (primary screen)
- Cells: Drosophila S2 cells
- Knock-down reagent: long dsRNA against Drosophila genes
- Measured: 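Firefly luciferase driven by E2F sites, normalised to Renilla luciferase on the same minimal promoter, measured by plate reader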
- Direction: E2F firefly: higher = more E2F reporter activity; Renilla normaliser: higher = more normaliser reporter signal
- Call rule: 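a knock-down counted as active when the firefly/Renilla E2F signal rose above 50%, a threshold chosen arbitrarily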

Target gene,DRSC id,"E2F firefly, rep 1","Renilla normaliser, rep 1"
AOX3 (Aldehyde oxidase 3),DRSC15955,91986,4446
Ilp8 (Insulin-like peptide 8),DRSC10076,1.51e5,7213
CG14333 (retired record),DRSC14812,1.16e5,6065
CG14333 (retired record),DRSC15769,56027,3359
Pms2,DRSC07511,93021,3716
GC1,DRSC15322,1.30e5,5599
dgt3 (dim gamma-tubulin 3),DRSC04349,83475,3128
BBS8 (Bardet-Biedl syndrome 8),DRSC00360,1.80e5,7007
Vps11 (Vacuolar protein sorting 11),DRSC11909,96266,3337
eIF4G2 (eukaryotic translation initiation factor 4G2),DRSC14207,80999,3454
TbCMF46,DRSC02221,1.38e5,4862
"Smyd4-1 (SET and MYND domain containing, class 4, member 1)",DRSC06785,3458,92
cola + swif,DRSC06826,1.32e5,5106
Gat (GABA transporter),DRSC17144,56429,4582
Rap1 (Rap1 GTPase),DRSC08686,74366,3168
CG16753,DRSC08489,71195,3143
hyd (hyperplastic discs),DRSC16971,1.38e5,5632
CG13000,DRSC19519,2.00e5,7955
CG3014,DRSC15458,1.26e5,6131
CG3894,DRSC01762,1.24e5,4829
CG3894,DRSC04012,1.37e5,6720
CG3894,DRSC04429,89046,2880
CG13151,DRSC06276,1.01e5,4171
CG6707,DRSC10697,1.08e5,6427
CG8476,DRSC16426,1.09e5,5440
wg (wingless),DRSC03636,1.57e5,5196
kat80 (katanin 80),DRSC20344,2.05e5,5777
kat80 (katanin 80),DRSC20345,2.43e5,5892
fend (forked end),DRSC17601,83990,2547
fend (forked end),DRSC17867,98757,6200
CG17819,DRSC15279,1.35e5,6560
CG15646,DRSC19682,2.03e5,6311
CG13488,DRSC04133,1.11e5,4513
qm (quemao),DRSC11386,95382,3598
CG7191,DRSC03022,1.66e5,5062
"CIA30 (Complex I intermediate-associated protein, 30 kDa)",DRSC16266,1981,1016
ymp (yellow-emperor),DRSC13720,1.01e5,2848
ymp (yellow-emperor),DRSC14482,1.02e5,5213
Lmpt (Limpet),DRSC09450,1.33e5,3876
Lmpt (Limpet),DRSC09864,1.59e5,8254
Lmpt (Limpet),DRSC09865,76450,3075
Lmpt (Limpet),DRSC09866,1.56e5,7948
Lmpt (Limpet),DRSC11107,1.55e5,7863
CG42382,DRSC07671,1.43e5,4792
Or67b (Odorant receptor 67b),DRSC11241,91413,4901
Proc (Proctolin),DRSC03009,1.15e5,126
Cdk12 (Cyclin-dependent kinase 12),DRSC11836,70225,3526
CG9795,DRSC12336,83088,3013
Uqcc1 + CG9948,DRSC09690,97099,3615
KLHL18 (Kelch like family member 18),DRSC15496,62520,3376
Taf4 (TBP-associated factor 4),DRSC11297,60625,164
CG31525,DRSC12004,96452,4072
CG13135,DRSC02232,1.58e5,5551
CG31898,DRSC01019,1.33e5,6674
RasGAP1 (Ras GTPase activating protein 1),DRSC11172,1.27e5,7804
Daxx (Daxx-like protein),DRSC03255,88204,3430
CG5245,DRSC15750,1.70e5,6808
nmd (no mitochondrial derivative),DRSC02856,94331,4057
fs(1)N (female sterile (1) Nasrat),DRSC18578,1.21e5,5909
NTPase,DRSC00761,92609,3867
CG4049,DRSC04443,1.22e5,4948
CG14247,DRSC14742,1.00e5,5741
CG30095,DRSC07175,1.55e5,5065
"FucT6 (alpha1,6-fucosyltransferase)",DRSC19848,7251,760
l(1)G0020 (lethal (1) G0020),DRSC18198,1.44e5,6903
CG17572,DRSC02629,1.05e5,4174
PpN58A (Protein phosphatase N at 58A),DRSC04642,85359,3595
Dlic (Dynein light intermediate chain),DRSC19824,8861,668
Ir7c (Ionotropic receptor 7c),DRSC18007,65782,4469
Obp56c (Odorant-binding protein 56c),DRSC06552,1.55e5,4977
CG42271,DRSC19809,7919,760
Ube3a (Ubiquitin protein ligase E3A),DRSC10600,69282,3547
CG5071,DRSC15710,1.03e5,6177
Boh1 (Buddy of Hmr 1),DRSC14487,1673,864
CG8520,DRSC07206,2925,181
htk (hat-trick),DRSC20029,1.05e5,5148
htk (hat-trick),DRSC20031,1.52e5,5465
Mink (Mitotic spindle and nuclear protein),DRSC14291,60802,2978
ogre (optic ganglion reduced),DRSC18809,7972,676
CG6674,DRSC10692,75245,3314
Or98a (Odorant receptor 98a),DRSC16774,1.29e5,5688
CG42260,DRSC03953,1.35e5,4856
CG42260,DRSC04172,98027,3959
CG42260,DRSC04385,97769,3721

Already shown: an excerpt of the list.
Target gene,DRSC id,"E2F firefly, rep 1","Renilla normaliser, rep 1"
Cdk12 (Cyclin-dependent kinase 12),DRSC11836,70225,3526
CG9795,DRSC12336,83088,3013
Uqcc1 + CG9948,DRSC09690,97099,3615
KLHL18 (Kelch like family member 18),DRSC15496,62520,3376
Taf4 (TBP-associated factor 4),DRSC11297,60625,164
